Data from US12186374B2 (Sanofi-Aventis Deutschland GmbH, priority 2014, dated 2025).
The amount applied is not stated for every result.

Test system: patients with Type 2 diabetes mellitus (T2DM)
Test: Average daily insulin glargine dose at Week 30 (Example 2)
Format: in vivo, human

Gly(A21)-Arg(B31)-Arg(B32)-human insulin [Insulin Glargine]
Mean daily insulin glargine dose at Week 30 (Example 2): 40.46 U | Average daily insulin glargine dose, Week 30, LS Mean (SE) (MMRM, mITT population): 40.46 (0.701) U | Average daily insulin glargine dose, Week 30, Mean (SD) (mITT population): 40.34 (14.85) U | Average daily insulin glargine dose, Week 30, Median (mITT population): 40.00 U
